Experimental data as given in PMC10898606.
No constants are given. Whether binding was seen depends on the method and setting. In cells and extracts the contact can be indirect. A result given as binding can be weak or reduced; the word gives no strength. Where a sequence is shown, tags or fusion partners need not be part of it.

What was measured:
[1] = target: CDC123-nLUC (Arabidopsis thaliana); test: split reporter; split luciferase complementation (SLCA): CDC123-nLUC with eIF2 subunit-cLUC, transient expression in N. benthamiana for 40 hr
[2] = target: CDC123-nYFP (Arabidopsis thaliana); test: split reporter; BiFC: CDC123-nYFP with eIF2 subunit-cYFP, transient expression in N. benthamiana for 40 hr, laser scanning microscopy

Row | binding [1] | binding [2] | Binder
1 | binds |  | eIF2β-cLUC (protein, UniProt Q41969 1-268) MADEINEIREEQEQLAPFDPSKKKKKKKVVIQEPVEDLAESSQTEKSDSLPVNDGLESSFTGMKKKKKKPTESSLLNNESVDAGEDLDEIANDEQEGEEGIVLQQRYPWEGSERDYIYDELLGRVFNILRENNPELAGDRRRTVMRPPQVLREGTKKTVFVNFMDLCKTMHRQPDHVMQYLLAELGTSGSLDGQQRLVVKGRFAPKNFEGILRRYITDYVICLGCKSPDTILSKENRLFFLRCEKCGSQRSVAPIKTGFVARVSRRKT
2 |  | binds | eIF2β-cYFP (protein, UniProt Q41969 1-268) MADEINEIREEQEQLAPFDPSKKKKKKKVVIQEPVEDLAESSQTEKSDSLPVNDGLESSFTGMKKKKKKPTESSLLNNESVDAGEDLDEIANDEQEGEEGIVLQQRYPWEGSERDYIYDELLGRVFNILRENNPELAGDRRRTVMRPPQVLREGTKKTVFVNFMDLCKTMHRQPDHVMQYLLAELGTSGSLDGQQRLVVKGRFAPKNFEGILRRYITDYVICLGCKSPDTILSKENRLFFLRCEKCGSQRSVAPIKTGFVARVSRRKT
